In patent US10450346B2, “Immunotherapy against several tumors of the blood, in particular chronic lymphoid leukemia (CLL)” (Immatics biotechnologies GmbH, priority 2014, dated 2019):

Tested on: primary CLL samples (PBMC from CLL patients), HLA class I ligands
Assay: HLA class I ligandome analysis by LC-MS/MS (frequency of HLA restricted presentation)
Parameters: species or system human

B1: T-cell activation RhoGTPase activating protein (protein, UniProt Q8N103 1-731, looked up)
T-cell activation Rho …: MKLRSSHNASKTLNANNMETLIECQSEGDIKEHPLLASCESEDSICQLIEVKKRKKVLSWPFLMRRLSPASDFSGALETDLKASLFDQPLSIICGDSDTLPRPIQDILTILCLKGPSTEGIFRRAANEKARKELKEELNSGDAVDLERLPVHLLAVVFKDFLRSIPRKLLSSDLFEEWMGALEMQDEEDRIEALKQVADKLPRPNLLLLKHLVYVLHLISKNSEVNRMDSSNLAICIGPNMLTLENDQSLSFEAQKDLNNKVKTLVEFLIDNCFEIFGENIPVHSSITSDDSLEHTDSSDVSTLQNDSAYDSNDPDVESNSSSGISSPSRQPQVPMATAAGLDSAGPQDAREVSPEPIVSTVARLKSSLAQPDRRYSEPSMPSSQECLESRVTNQTLTKSEGDFPVPRVGSRLESEEAEDPFPEEVFPAVQGKTKRPVDLKIKNLAPGSVLPRALVLKAFSSSSLDASSDSSPVASPSSPKRNFFSRHQSFTTKTEKGKPSREIKKHSMSFTFAPHKKVLTKNLSAGSGKSQDFTRDHVPRGVRKESQLAGRIVQENGCETHNQTARGFCLRPHALSVDDVFQGADWERPGSPPSYEEAMQGPAARLVASESQTVGSMTVGSMRARMLEAHCLLPPLPPAHHVEDSRHRGSKEPLPGHGLSPLPERWKQSRTVHASGDSLGHVSGPGRPELLPLRTVSESVQRNKRDCLVRRCSQPVFEADQFQYAKESYI
notes: LiTAA source protein
Number of positive CLLs (CLL patient HLA class I ligandomes (n = 30)): 10
Number of positive CLLs (frequency [%]) (source protein (LiTAA) representation in CLL patient HLA class I ligandomes (n = 30)): 33.3%
